In all, about 400,000 compounds went through this assay and about 5,500 (1.4%) were called active. This list was built around the results that the source calls inconclusive (neither active nor inactive); the mix of calls is not that of the screen. Calls follow the shape of the dose curve; as a rule, active = well fitted cell-killing curve with a large enough effect; inconclusive = small, poorly fitted or top-dose-only effect, or effect the other way; inactive = flat fitted curve, though single readings scatter. Where the call is inconclusive, the potency comes from a doubtful curve fit.
experiment: qHTS assay for MDR1-selective chemotherapeutics: Primary screen using the parental adenocarcinoma cell KB-3-1; details: KB-3-1 viability, CellTiter-Glo ATP luminescence, 72 h; activity change, negative = cytotoxic: at 46.1 µM (top of the series); also: nearly all actives have a fitted effect of over 60% in size
In short: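 Parental KB-3-1 viability, qHTS format: 72 h compound exposure, 37 °C; CellTiter-Glo; media-only wells and DMSO plates as controls; concentration-effect fits on corrected data.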
% is scaled to controls: 0 for no effect and ±100 for the full control effect; potency is read from the fitted curve at half-maximal effect.

Structure (SMILES)	activity change, negative = cytotoxic	Potency
Cc1ccc(S(=O)(=O)N2C[C@H]3n4c(=O)ccc(=O)n4C[C@H](OC(=O)NC4CC4)[C@@]3(O)C2)cc1	inactive: 22.1%	–
O=C1c2ccccc2NC(c2ccccc2OCc2ccccc2)N1Cc1ccco1 (stereo not drawn)	–	inconclusive: 29.1 µM [cytotoxic, single point]
O=[N+]([O-])c1cc2c(cc1Br)-c1ccccc1C2	–	inconclusive: 32.6 µM [cytotoxic, single point]
CN(C)c1ccc(-c2c(-c3ccc4c(c3)OCO4)noc2-c2ccsc2)cn1	–	inconclusive: 29.1 µM [cytotoxic, single point]
Cc1ccc(C(=O)C[n+]2cc(-c3ccc(C)cc3)n3c2CCCCC3)cc1	–	active: 0.92 µM
O=C1c2ccccc2C(Nc2ccc(Cl)cn2)N1Cc1ccccc1 (stereo not drawn)	–	inconclusive: 25.9 µM [cytotoxic, single point]
COc1cc(NS(=O)(=O)c2ccc3ccccc3c2)c2ncccc2c1	–	active: 6.51 µM
CC(C)(C)c1cc(CCC(=O)NNC(=S)NC(=O)c2ccccc2)cc(C(C)(C)C)c1O	–	inconclusive: 16.4 µM [cytotoxic, partial curve]
c1cc(CNCCN2CCNCC2)ccn1	–	inconclusive: 23.1 µM [rising, single point]
COc1ccc(C(=O)NNC(=S)NC(=O)c2cccs2)cc1	–	inconclusive: 18.4 µM [cytotoxic, single point]
CCCc1nnc(NC(=O)CCC(=O)N2CCN(Cc3ccc(OC)c(F)c3)CC2)s1	inactive: 1.82%	–
C=CC[C@@H](CC(=O)N(CCO)Cc1ccccc1)C(=O)NC[C@H](OC(=O)[C@@H](CC=C)Cc1ccc(F)cc1)c1ccccc1	–	inconclusive: 23.1 µM [cytotoxic, single point]
COc1ccc(NC(=O)CSc2ncnc3[nH]ncc23)cc1	–	inconclusive: 32.6 µM [cytotoxic, single point]
CCCn1c(N)c(N(CCOC)C(=O)c2cc(C)cc(C)c2)c(=O)[nH]c1=O	–	inconclusive: 0.366 µM [rising, full curve, poor fit]
O=C(CN1CCN(CC(=O)Nc2cccc(F)c2)CC1)Nc1ccc(-c2ccccc2)cc1	–	inconclusive: 9.2 µM [rising, partial curve, poor fit]
CC(C)CCn1c(NCCc2ccccc2)nc2c1c(=O)n(C)c(=O)n2C	–	inconclusive: 23.1 µM [cytotoxic, single point]
COc1ccc(/C=N/Nc2ncnc3sc4c(c23)CCCC4)cc1OC	–	active: 18.4 µM
OC(c1ccccc1)c1nc(-c2ccc(Cl)cc2)cs1 (stereo not drawn)	–	inconclusive: 20.6 µM [cytotoxic, single point]

Two of these compounds in another layout.
Structure (SMILES) | activity change, negative = cytotoxic | Potency
CC(C)CCn1c(NCCc2ccccc2)nc2c1c(=O)n(C)c(=O)n2C | – | inconclusive: 23.1 µM [cytotoxic, single point]
COc1ccc(/C=N/Nc2ncnc3sc4c(c23)CCCC4)cc1OC | – | active: 18.4 µM
